For at least one entry, the source does not settle the construct or the ends of the probe.

For the data set, the system named is Zur (zinc uptake regulator). The experiment in a line: EMSA. The settings on record: 90 nM Zur, 20 mM Tris-HCl pH 7.8, 50 mM KCl, 1 mM DTT, 0.1 mg/ml BSA, 5% glycerol, 0.1 ug poly(dI-dC) per 20 ul, 0-20 uM ZnSO4, room temperature 20 min, gel 5% PAGE in TB at 4 C, recombinant protein, label: 32P.

As to “CAAGGCACATGACAACGGTGTTCAGTGCCGCGT (double strand) [zitB 33 bp probe (-67 to -35)]”, the binding result (up to 20 uM Zn, dimer and tetramer complexes, letters put together from the description) is reported as “binds”.

With “GCACATGACAACGGTGTTCAGTGCC (double strand) [zitB 25 bp Zur-box probe (-63 to -39)]”, the binding result (20 uM Zn, single dimer complex) was “binds”.

The record behind these values is paper PMC5472717.
